This is an account of results in the supplement of paper PMC8256030.

Where “and” joins values, the source holds several entries; their conditions need not be identical. Identical values can stand only once. The list shows a part of the results. Single values are uncertain here, since repeats match poorly.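 HEK293T cells were given each compound shortly before transfection with a reporter in which red mCherry is followed by the SARS-CoV-2 frameshift element and then GFP in the −1 frame, so GFP appears only after frameshifting.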

The assay deals with HEK293T. As to the kind of experiment: percent viability (nuclei count) relative to control; higher = more viable cells. The note with it: 10 µM; 24 h.
Consider `CC(=O)N=c1sc(S(N)(=O)=O)nn1C`, for which the percent viability is 321%.
For the compound `CC(CCc1ccc(O)cc1)NCCc1ccc(O)c(O)c1` (stereo not given), the percent viability was 145% and 250%.
On to `Cc1cccc(C)c1NC(=O)c1ccc(N)cc1` [ameltolide], for which the percent viability was 131%.
In the case of `CN[C@H](CC(C)C)C(=O)N[C@H]1C(=O)N[C@@H](CC(N)=O)C(=O)N[C@H]2C(=O)N[C@H]3C(=O)N[C@H](C(=O)N[C@H](C(=O)O)c4cc(O)cc(O)c4-c4cc3ccc4O)[C@H](O[C@H]3C[C@](C)(N)[C@@H](O)[C@H](C)O3)c3ccc(c(Cl)c3)Oc3cc2cc(c3O[C@@H]2O[C@H](CO)[C@@H](O)[C@H](O)[C@H]2O[C@H]2C[C@](C)(NCc3ccc(-c4ccc(Cl)cc4)cc3)[C@@H](O)[C@H](C)O2)Oc2ccc(cc2Cl)[C@H]1O` [oritavancin] it was 271%; in that of `CN(C)[C@@H]1C(=O)C(C(N)=O)=C(O)[C@@]2(O)C(=O)C3=C(O)c4c(O)ccc([N+](=O)[O-])c4C[C@H]3C[C@@H]12` [nitrocycline], 126%; in that of `CCCCc1nc(Cl)c(CO)n1Cc1ccc(-c2ccccc2-c2nnn[nH]2)cc1` [Losartan], 334%.
On to `COc1ccc(/C=C/C(=O)Nc2ccccc2C(=O)O)cc1OC` [Tranilast], for which the percent viability was 165%.
In the case of `CCOc1ccc(Cc2cc([C@@H]3O[C@H](CO)[C@@H](O)[C@H](O)[C@H]3O)ccc2Cl)cc1` [Dapagliflozin], the percent viability came out at 298%.
In the case of `CCC(=O)O[C@]1(C(=O)CCl)[C@@H](C)C[C@H]2[C@@H]3CCC4=CC(=O)C=C[C@]4(C)[C@@]3(F)[C@@H](O)C[C@@]21C` [Clobetasol Propionate], the percent viability was determined as 15%.
For `COc1ccc(/C=C/C(=O)c2ccc(OC)cc2OC)cc1` [metochalcone], the percent viability was found to be 284%.
Take `CCCCCCCN(CC)CCCC(O)c1ccc(NS(C)(=O)=O)cc1` (stereo not given) [ibutilide]: the percent viability amounted to 162%.
As to `O=C1CN2Cc3c(ccc(Cl)c3Cl)N=C2N1` [Anagrelide], the percent viability worked out at 212%.
Turning to `COc1ccc(C(=O)Nc2ccccc2CCC2CCCCN2C)cc1` (stereo not given) [encainide], the percent viability was 173%.
Turning to `NC(=O)c1ccc([N+](=O)[O-])cc1Cl` [aklomide], the percent viability was found to be 199%.
The figure for `CCC(=O)O[C@@H]1CC(=O)O[C@H](C)C/C=C/C=C/[C@H](O)[C@H](C)C[C@H](CC=O)[C@H](O[C@@H]2O[C@H](C)[C@@H](O[C@H]3C[C@@](C)(O)[C@@H](OC(=O)CC)[C@H](C)O3)[C@H](N(C)C)[C@H]2O)[C@H]1OC` [midecamycin] is 229%; for `O=P(O)(O)C(O)(Cn1ccnc1)P(=O)(O)O` [zoledronic acid] it is 225%.
In the case of `c1ccc2c(c1)cc1n2CCCNC1` [azepindole] it was 18.6%; in that of `C#C[C@]1(OC(C)=O)CC[C@H]2[C@@H]3CCC4=C[C@@H](OC(C)=O)CC[C@@H]4[C@H]3CC[C@@]21C`, 254%.
In the case of `CN(C(=O)CO/N=C(\c1ccccc1)c1ccc2c(c1)CN1CC(=O)NC1=N2)C1CCCCC1` [revizinone] it was 158%; in that of `O=C1CC[C@@H](C(=O)Oc2ccc(O)cc2)N1` [pidobenzone], 176%.
As to `CC(CN(C)C)CN1c2ccccc2Sc2ccccc21` (stereo not given) [alimemazine], the percent viability was 198%.
For `CN[C@@H]1CCc2[nH]c3ccc(C(N)=O)cc3c2C1` [frovatriptan], the percent viability was determined as 235%.
The figure for `OCCOCCN1CCN(C2=Nc3ccccc3Sc3ccccc32)CC1` [quetiapine] is 405% and 241%; for `CC(O)(P(=O)(O)O)P(=O)(O)O` [Etidronate] it is 55.8%; for `CC(C(=O)O)c1ccc(C(=O)c2ccccc2)s1` (stereo not given) [tiaprofenic acid] it is 187%.
In the case of `CC(C)[C@H]1CC[C@H](C)C[C@@H]1O` [racementhol], the percent viability is 148%.
For `CC(C)(C)NC[C@H](O)c1ccc(O)c(CO)c1` [levosalbutamol], the percent viability worked out at 124%.
In the case of `C[C@]12C=CC(=O)C=C1CC[C@H]1[C@@H]3CC[C@](O)(C(=O)CO)[C@@]3(C)C[C@H](Cl)[C@@]12Cl` [dichlorisone] it was 236%.
For `NC[C@H](O)c1ccc(O)c(O)c1` [Norepinephrine], the percent viability came to 156%.
Regarding `C[C@H](N)C(=O)N[C@@H](C)P(=O)(O)O` [alafosfalin], the percent viability was 213%.
Turning to `CC1CCN(C(=O)[C@@H](CCn2cccc2C#N)NS(=O)(=O)c2cccc3[nH]ccc23)CC1`, the percent viability is 136%.
The figure for `CO[C@@]1(NC(=O)CSCC#N)C(=O)N2C(C(=O)O)=C(CSc3nnnn3C)CS[C@@H]21` [Zefazone] is 276%.
In the case of `S=C1SCN(Cc2ccccc2)CN1Cc1ccccc1` it was 56.2%; in that of `CCOC(=O)c1ccc(N)cc1` [benzocaine], 219%; in that of `CCCCCCCCCCCC[N+](C)(C)CC(=O)OCC` [laurcetium iodide], 138%.
Take `CC(=O)N[C@H]1[C@H](O[C@H]2[C@H](O)[C@@H](NC(C)=O)C(O)O[C@@H]2CO)O[C@H](CO)[C@@H](O)[C@@H]1O` (stereo not given in full): the percent viability amounted to 221%.
The figure for `O=C(O)c1cc(=O)c2c(OCC(O)COc3cccc4oc(C(=O)O)cc(=O)c34)cccc2o1` [cromoglicic acid] is 242%; for `CC/C=C\C/C=C\C/C=C\CCCCCCCC(=O)O` it is 177% and 171%.
As to `NC(=O)C(=O)N/N=C/c1ccc([N+](=O)[O-])o1` [nifuraldezone], the percent viability was 225%.
The figure for `CN(C)C(=O)N[C@H]1CC[C@H](CCN2CCN(c3cccc(Cl)c3Cl)CC2)CC1` [Cariprazine] is 239%.
